Measured data: PubChem BioAssay AID504786 (Drosophila RNAi Screening Center, 2011)

Assay: 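Knock-downs reducing HIF reporter induction by the iron chelator DFO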 (primary screen)
System: Drosophila S2 cells with a stable HIF luciferase reporter
Reagent: long dsRNA against Drosophila genes, about 0.2 µg dsRNA per well of a 384-well plate
Timing: three days of knock-down, then 20 h of DFO before reading
Conditions: desferrioxamine (DFO) at 100 µM, an iron chelator that mimics hypoxia, for 20 h
Measured: 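HIF reporter luminescence in cells given 100 µM DFO for 20 h, using the mouse ldh-a hypoxia-response element, scored as per-plate z-scores; higher means greater loss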
Scale: z-score: higher = stronger loss of HIF reporter signal
In all, the deposit lists about 21,000 reagents; shown is an unselected part of those that have a named target and a result. 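Primary screen; positive scores mean lost reporter signal, so the sign may be inverted from the usual convention.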 Names joined by + are all predicted targets of the reagent.

target	DRSC id	z-score, replicate 1	z-score, replicate 2	z-score, replicate 3	z-score, replicate 4
Dronc	DRSC11231	-0.2	0.3		
CG3184	DRSC18289	-0.1	-0.4		
COX8	DRSC11814	1.7	1.4		
CG34045	DRSC05787	0.1	0.1		
Nplp3	DRSC09944	-0.1	-0.5		
phr6-4	DRSC03589	-0.3	0		
mri	DRSC08259	-0.2	-0.4		
CG32450	DRSC11546	0.1	0.1		
CG13121 (retired record)	DRSC02217	-0.3	-0.2		
c11.1	DRSC18749	-0.4	-0.4		
scb	DRSC05542	0	-0.1		
scb	DRSC07678	-0.2	-0.3		
koi	DRSC04980	-0.3	-0.3		
fig	DRSC16270	0	0.1		
dgt4	DRSC18659	-0.1	-0.1		
CG42540	DRSC08327	-0.1	3.8		
CG42540	DRSC08328	-0.4	-0.6		
CG42540	DRSC08593	1.9	1.3		
Socs36E	DRSC02455	-0.2	-0.4	0.9	-0.1
CG7182	DRSC10780	-0.2	0.1		
Irbp	DRSC17007	-0.3	-0.6		
Grip163	DRSC10538	-0.1	-0.3		
Drip	DRSC07405	-0.3	-0.3		
CG10366	DRSC02046	-0.2	-0.4		
CG6726	DRSC16101	-0.3	-0.3		
Tdc2	DRSC04999	0.1	-0.2		
CG16700	DRSC19755	-0.3	-0.4		
Cdc16	DRSC16920	-0.4	-0.4		
nito	DRSC05943	-0.5	-0.9		
CG31817	DRSC01537	-0.6	-0.3		
CG31817	DRSC01538	-0.2	0.2	0.1	0.2
l(2)37Cd	DRSC02069	-0.3	-0.2		
CG5888	DRSC01929	-0.1	0.3		
CG5828	DRSC02900	-0.2	-0.2		
CG2577	DRSC19863	-0.2	1		
PCNA2	DRSC02030	-0.3	-0.2		
TM9SF2	DRSC03197	-0.3	-0.5		
Sbf	DRSC16852	-0.5	-1		
CG8229	DRSC07114	-0.2	-0.6		

Continued; the last 6 above are carried over.
target	DRSC id	z-score, replicate 1	z-score, replicate 2	z-score, replicate 3	z-score, replicate 4
CG5828	DRSC02900	-0.2	-0.2		
CG2577	DRSC19863	-0.2	1		
PCNA2	DRSC02030	-0.3	-0.2		
TM9SF2	DRSC03197	-0.3	-0.5		
Sbf	DRSC16852	-0.5	-1		
CG8229	DRSC07114	-0.2	-0.6		
Ir56c	DRSC06544	-0.2	-0.4		
CG32260	DRSC08084	0	-0.3		
Cyp310a1	DRSC03301	-0.3	-0.3		
CG4133	DRSC00639	-0.1	-0.6		
CG34300	DRSC13977	-0.1	-0.2		
CG15530	DRSC15067	-0.3	-0.2		
CG34354	DRSC13863	0	-0.1		
CG34354	DRSC14515	0	-0.9		
CG34354	DRSC14558	4.3	0.1		
CG34354	DRSC15645	-0.4	-0.5		
CG42506 (retired record) + CG43759	DRSC19464	-0.2	-0.3		
CG42506 (retired record) + CG43759	DRSC19543	1.6	1.2		
Indy	DRSC10393	-0.4	-0.7		
CG15753 (retired record)	DRSC19718	-0.1	4.6		
Tcs6 + PIG-P	DRSC13742	-0.1	-0.1		
Tcs6 + PIG-P	DRSC14893	-0.2	-0.3		
CG15203	DRSC19650	-0.3	-1.2		
CG7328	DRSC10812	-0.3	0		
mtrm	DRSC10322	-0.3	0		
BomT2	DRSC06631	-0.4	-0.8		
Dh31-R	DRSC06647	0.3	0.5		
Dh31-R	DRSC06669	-0.4	-0.3		
Osi16	DRSC12135	-0.2	0		
Lcp65APsi	DRSC08795	0	0.1		
Lcp65APsi	DRSC10342	-0.3	0.2		
CG13044	DRSC09925	-0.3	-0.2		
beat-Ia	DRSC03489	-0.3	-0.2		
CG13984	DRSC02316	0	0.1		
RpL3	DRSC16834	7	5.4		
ref(2)P	DRSC03601	-0.2	-0.1		
Oseg1	DRSC10776	-0.2	-0.4		
Kdm2	DRSC14286	-0.4	-0.4		
LysX	DRSC08678	-0.3	-0.5		
CG2147	DRSC18211	-0.2	-0.1		
HLH4C	DRSC18670	-0.1	-0.3	-0.7	0
bbg	DRSC11077	-0.4	0		
bbg	DRSC11079	-0.2	0		
hry	DRSC11353	1.7	1		
CG30058 + CG34235 + CG34312	DRSC05401	-0.1	0		
CG31296	DRSC13092	-0.2	-0.1		
dpr12	DRSC04814	0.1	0.1		
dpr12	DRSC04863	-0.1	0.2		
dpr12	DRSC04892	-0.2	-0.3		
CG7920	DRSC16346	-0.4	-0.4		
CG15136	DRSC02436	-0.3	-0.7		
CG31510	DRSC14182	0.1	-0.4		
CG11837	DRSC14397	-0.3	0.6		
Lint-1	DRSC19822	-0.4	-0.9		
CG5131	DRSC02817	-0.4	-0.5		
CG34292	DRSC13807	-0.3	0.1		
mRpS18B	DRSC02107	0.3	0.6		
Wbp2	DRSC09821	1.7	1.6		
Hsp68	DRSC16712	-0.3	-0.4		
RpL29	DRSC04650	-0.3	-0.7		
Cdk5	DRSC07359	-0.2	0.1		
CG15084	DRSC06515	-0.1	0	-0.6	-0.3
chico	DRSC03531	0	-0.2		
casp	DRSC07164	-0.2	-0.2		
lectin-37Da	DRSC03278	-0.3	-0.6	-0.4	-0.1
CG11425	DRSC11657	-0.1	0		
CG18210 (retired record)	DRSC19089	-0.3	1.2		
CG18210 (retired record)	DRSC19795	-0.3	-0.5		
scpr-B	DRSC15200	-0.3	-0.3		
Rep	DRSC07526	0.2	0.1		
DptB	DRSC06001	0	0.3		
CG11899	DRSC16656	-0.1	-0.3		
dwg	DRSC18766	-0.3	-0.7		
